{
  "source": "PubChem BioAssay AID504467",
  "about": "(National Center for Advancing Translational Sciences (NCATS), 2011)",
  "note": "Hit rate of the full screen: of about 330,000 compounds, about 7,700 (2.3%) were called active. The shares of active, inactive and inconclusive entries below differ from those in the screen. Calls follow the shape of the dose curve; as a rule, active = well fitted inhibition curve with a large enough effect; inconclusive = small, poorly fitted or top-dose-only effect, or effect the other way; inactive = flat fitted curve, though single readings scatter. Potencies of inconclusive entries are doubtful fits and often do not repeat. Potency is read from the fitted curve at half-maximal effect.",
  "data": [
    {"test": "qHTS screen for small molecules that inhibit ELG1-dependent DNA repair in human embryonic kidney (HEK293T) cells expressing luciferase-tagged ELG1; also: nearly all actives have a fitted effect of over 55% in size", "conditions": "HEK293T ELG1-luciferase reporter, luminescence, 16 h, DNA damage induced by 5-fluorouridine; series mostly up to 46.1 µM", "summary_of_the_method": "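HEK293T cells expressing luciferase-tagged ELG1 (2,000/well) received 5-Fluorouridine plus compound or DMSO for 16 hr at 37 °C. Luciferase was read by ONE-Glo luminescence after 30 min at room temperature.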", "values": [
      {"smiles": "CSc1ccc(-c2ccco2)nn1", "Potency": "inconclusive: 18.3 µM [activator, partial curve]"},
      {"smiles": "O=C1N=c2ccccc2=C1c1[nH]c(=S)[nH]c1O", "Potency": "inconclusive: 23.1 µM [activator, partial curve, poor fit]"},
      {"smiles": "O=C(c1sc2ccccc2c1Cl)N(Cc1ccccc1Cl)C1CCS(=O)(=O)C1", "note": "(configuration not stated)", "Potency": "inactive"},
      {"smiles": "COc1ccccc1-n1cnc2cc(NS(=O)(=O)c3ccccc3)ccc21", "Potency": "inconclusive: 14.6 µM [inhibitor, single point]"},
      {"smiles": "CCOC(=O)N1CCN(S(=O)(=O)c2cc(Cl)c(OC)cc2Cl)CC1", "Potency": "inactive"},
      {"smiles": "O=C/C(=C\\Nc1ccccn1)c1nc2cc(Cl)ccc2o1", "Potency": "inconclusive: 20.6 µM [activator, single point]"},
      {"smiles": "COc1ccc(NC(=O)c2nc[nH]c2C(=O)N[C@@H](C)c2ccccc2)cc1", "Potency": "inconclusive: 29.1 µM [inhibitor, single point]"},
      {"smiles": "C=CCn1c(SC(F)F)nc2scc(-c3ccco3)c2c1=O", "Potency": "inactive"},
      {"smiles": "COC(=O)c1sc(S(=O)(=O)N2CC(C)OC(C)C2)c(C(=O)OC)c1C", "note": "(configuration not stated)", "Potency": "inactive"},
      {"smiles": "O=C(NCc1ccc(Cl)cc1)C(=O)NCC1OCCN1C(=O)c1cccs1", "note": "(configuration not stated)", "Potency": "inactive"},
      {"smiles": "CC(NC(=O)c1nn(C)c2c1CS(=O)(=O)c1ccccc1-2)c1ccccc1", "note": "(configuration not stated)", "Potency": "inconclusive: 14.6 µM [inhibitor, partial curve]"},
      {"smiles": "CCCN(CCC)C(=O)c1ccc2c(c1)OCO2", "Potency": "inactive"},
      {"smiles": "Nc1nc2n(n1)C(c1ccccc1Cl)CC(c1ccc(F)cc1)N2", "note": "(configuration not stated)", "Potency": "inactive"},
      {"smiles": "O=C(Nc1ccccc1)c1cc(N2CCOCC2)nc2ccccc12", "Potency": "inconclusive: 29.1 µM [inhibitor, single point]"},
      {"smiles": "CCc1nnc(NC(=O)/C=C/c2ccco2)s1", "Potency": "inconclusive: 20.6 µM [activator, partial curve]"},
      {"smiles": "CCCCOc1ccc(-c2ncc(C(=O)O)c(C)n2)cc1", "Potency": "inconclusive: 0.461 µM [activator, full curve]"},
      {"smiles": "CCCCn1c(=O)[nH]c(=O)c2c1nc(-c1ccsc1)n2Cc1ccccc1", "Potency": "active: 18.4 µM"},
      {"smiles": "Cc1ccc(S(=O)(=O)NCC(=O)OCC(=O)N2CCN(C(=O)c3ccco3)CC2)cc1C", "Potency": "inactive"},
      {"smiles": "Cc1nc(S(=O)(=O)NC2CCCCC2)c(C#N)c(C)c1Cl", "Potency": "inactive"},
      {"smiles": "CCOc1cc(/C=C/C(=O)c2ccc(C)cc2)ccc1OCC(=O)N(C)C", "Potency": "active: 18.4 µM"},
      {"smiles": "COc1ccc(C(=O)c2coc3ccc(O)c(CN4CCOCC4)c23)cc1", "Potency": "inconclusive: 14.6 µM [inhibitor, partial curve, poor fit]"},
      {"smiles": "Cc1ccc(C2=NS(=O)(=O)N(C)C(C(=O)NCc3ccc(F)cc3)=C2)cc1", "Potency": "inconclusive: 29.1 µM [inhibitor, partial curve, poor fit]"},
      {"smiles": "O=C(/C=C/c1cn(-c2ccccc2)nc1-c1ccc2c(c1)OCCO2)NCCO", "Potency": "inconclusive: 29.1 µM [inhibitor, single point]"},
      {"smiles": "O=C(COC(=O)c1c2c(nc3ccccc13)CCCC2)c1cccs1", "Potency": "inconclusive: 20.6 µM [inhibitor, single point]"},
      {"smiles": "COc1ccc(S(=O)(=O)N(Cc2ccccc2)Cc2nc3ccccc3c(=O)[nH]2)cc1", "Potency": "inconclusive: 20.6 µM [inhibitor, partial curve]"},
      {"smiles": "Cc1nnc(SCC(=O)Nc2ccc([N+](=O)[O-])cc2)n1CC1CCCO1", "note": "(configuration not stated)", "Potency": "inactive"},
      {"smiles": "COc1ccc(NS(=O)(=O)c2cc(OC)ccc2NC(=O)c2cc(C)oc2C)cc1", "Potency": "inconclusive: 5.8 µM [inhibitor, full curve]"},
      {"smiles": "O=C1C=C(c2ccc3ncccc3c2)C[C@@H](c2ccc(F)cc2)C1", "Potency": "inconclusive: 18.3 µM [inhibitor, single point]"},
      {"smiles": "Cc1c(C(=O)NCCN2CCOCC2)oc2ccc(S(=O)(=O)N3CCCCCC3)cc12", "Potency": "inconclusive: 10.3 µM [inhibitor, single point]"},
      {"smiles": "Cn1c(C(=O)N2CCN(c3ccc([N+](=O)[O-])cc3)CC2)cc2c(=O)[nH]c3ccccc3c21", "Potency": "inconclusive: 2.31 µM [inhibitor, partial curve]"},
      {"smiles": "CCOc1ccc2nc(N3C(=O)CNC3=S)sc2c1", "Potency": "inconclusive: 10.3 µM [activator, partial curve]"},
      {"smiles": "CN1CCN(c2ccc(C(=O)c3ccc(F)cc3)cc2)CC1", "Potency": "inconclusive: 9.2 µM [activator, partial curve]"},
      {"smiles": "CC(C)C(=O)Nc1ccc(NC(=O)c2ccccn2)cn1", "Potency": "inconclusive: 2.59 µM [activator, partial curve]"},
      {"smiles": "COCCN(C(=O)c1ccco1)c1nc(-c2ccccc2)cs1", "Potency": "inactive"},
      {"smiles": "CC1(C)Cc2nc(Cl)c(C(N)=O)cc2CO1", "Potency": "inactive"},
      {"smiles": "Oc1ccc(Br)cc1/C=N/NC(=S)NCCc1ccccc1", "Potency": "inconclusive: 23.1 µM [inhibitor, partial curve, poor fit]"},
      {"smiles": "Cn1cc(CCC(=O)N2CCCC(CCC(=O)NCc3ccc(F)c(F)c3)C2)cn1", "note": "(configuration not stated)", "Potency": "inconclusive: 29.1 µM [activator, single point]"},
      {"smiles": "COc1cc(OC)cc(C(=O)Nc2nc3ccccc3[nH]2)c1", "Potency": "inconclusive: 5.17 µM [activator, single point]"},
      {"smiles": "CCc1nc(N2CCN(C(=O)c3ccco3)CC2)c2oc3ccccc3c2n1", "Potency": "inconclusive: 20.6 µM [inhibitor, single point]"},
      {"smiles": "Cc1ccc(Cl)c(OCC(=O)Nc2cccnc2)c1", "Potency": "inconclusive: 20.6 µM [activator, partial curve]"},
      {"smiles": "CN(C)N1C(N)=C(C#N)C(c2cccc([N+](=O)[O-])c2)C2=C1CC(C)(C)CC2=O", "note": "(configuration not stated)", "Potency": "inactive"},
      {"smiles": "Cn1c(=O)c2c(ncn2CC(=O)N/N=C/C=C/c2ccco2)n(C)c1=O", "Potency": "inactive"},
      {"smiles": "COCCNC(=O)C1Cc2c(ccc3ccccc23)O1", "note": "(configuration not stated)", "Potency": "inconclusive: 20.6 µM [activator, single point]"},
      {"smiles": "CCn1c(-c2ccccc2)csc1=Nc1ccc(S(=O)(=O)O)cc1", "Potency": "inactive"},
      {"smiles": "C/C(=N\\NC(=O)c1c(Cl)c(C)nn1C)c1cccc(NC(=O)COc2ccccc2)c1", "Potency": "inconclusive: 20.6 µM [inhibitor, partial curve]"},
      {"smiles": "CC(=O)N1CCc2cc(S(=O)(=O)Nc3ccc(C)cc3C)ccc21", "Potency": "inconclusive: 29.1 µM [inhibitor, single point]"},
      {"smiles": "CC1CCC(NC(=O)CN2C(=O)c3ccccc3S2(=O)=O)CC1", "note": "(configuration not stated)", "Potency": "inconclusive: 14.6 µM [activator, single point]"},
      {"smiles": "CCN(CC)C(=O)Oc1ccc2c(=O)c(-c3ccc(OC)cc3)coc2c1", "Potency": "inconclusive: 4.11 µM [activator, single point]"},
      {"smiles": "O=C(COc1cccnc1[N+](=O)[O-])Nc1ccccc1Sc1ccccc1", "Potency": "inactive"},
      {"smiles": "COc1cc(NC(=O)c2ccccc2)c(OC)cc1NC(=O)CN1CCCCC1", "Potency": "inconclusive: 25.9 µM [inhibitor, single point]"},
      {"smiles": "O=C(COc1ccccc1[N+](=O)[O-])OCC(=O)c1ccc(Br)s1", "Potency": "inactive"},
      {"smiles": "S=C(c1ccc(-c2ccccc2)o1)N1CCCCC1", "Potency": "inconclusive: 6.51 µM [activator, partial curve]"},
      {"smiles": "C=CCNC(=O)/C(C#N)=C/c1c(N2CC(C)OC(C)C2)nc2ccccn2c1=O", "note": "(configuration not stated)", "Potency": "inactive"},
      {"smiles": "O=C(COC(=O)c1ccc(CO)cc1)c1ccc(S(=O)(=O)N2CCCCC2)cc1", "Potency": "inconclusive: 35.5 µM [inhibitor, single point]"},
      {"smiles": "Cc1c(C)c2ccc(OCC(=O)N3CC[C@@]4(O)CCCC[C@H]4C3)cc2oc1=O", "Potency": "inconclusive: 4.11 µM [activator, single point]"},
      {"smiles": "CCOc1ccc(OCc2cccc(C(=O)N3CCCC3)c2)cc1", "Potency": "inconclusive: 2.06 µM [activator, partial curve]"},
      {"smiles": "Cc1cccc(NC(=S)NCCc2ccccc2)c1C", "Potency": "inactive"},
      {"smiles": "Cc1cccc(Sc2c([N+](=O)[O-])ncn2C)c1", "Potency": "inactive"},
      {"smiles": "COc1ccc2[nH]c(=O)c(CNc3ccc(C)c(C)c3)cc2c1", "Potency": "inconclusive: 0.58 µM [activator, partial curve]"},
      {"smiles": "CCCCNc1c(-c2cccc(-c3cc(C(C)=O)cs3)c2)nc2ccc(C)cn12", "Potency": "inconclusive: 3.16 µM [inhibitor, partial curve, poor fit]"},
      {"smiles": "COc1ccccc1CCC(=O)Nc1nccs1", "Potency": "inactive"},
      {"smiles": "Cc1cc(C(=O)CSc2nc3ccc(Cl)cc3[nH]2)c(C)n1CC1CCCO1", "note": "(configuration not stated)", "Potency": "active: 23.1 µM"},
      {"smiles": "COc1ccc(S(=O)(=O)N(C)C[C@H]2Oc3c(NC(=O)C4CC4)cccc3C(=O)N([C@H](C)CO)C[C@@H]2C)cc1", "Potency": "inactive"},
      {"smiles": "CCC1CCCCN1CCN1C(=O)C2C(C(=O)Nc3cccc(OC)c3)C3C=CC2(O3)C1C(=O)NC1CCCCC1", "note": "(configuration not stated)", "Potency": "inactive"},
      {"smiles": "COc1ccc2cc(C(=O)NCc3ccco3)c(=O)oc2c1", "Potency": "inconclusive: 13 µM [activator, partial curve, poor fit]"},
      {"smiles": "CCOc1ccc2[nH]c(=O)c(CN(CCN3CCCC3)C(=S)Nc3ccccc3OC)cc2c1", "Potency": "inactive"},
      {"smiles": "CCOC(=O)C(Cc1ccccc1)C(=O)Nc1nccs1", "note": "(configuration not stated)", "Potency": "inconclusive: 25.9 µM [inhibitor, partial curve, poor fit]"},
      {"smiles": "CCOC(=O)c1ccc(CN(Cc2ccc(C)cc2)S(=O)(=O)c2cccc([N+](=O)[O-])c2)cc1", "Potency": "inactive"},
      {"smiles": "COc1ccc(-c2nc3ccccc3nc2-c2ccc(OC)cc2)cc1", "Potency": "inactive"},
      {"smiles": "CCN1C(=NCCOC)N[C@@H](c2ccccc2)[C@H](C(=O)OC)[C@H]1C", "Potency": "inconclusive: 29.1 µM [activator, partial curve, poor fit]"},
      {"smiles": "COc1ccc(OC)c(NC(=O)CCN2CCN(c3ccccc3)CC2)c1", "Potency": "inconclusive: 32.6 µM [inhibitor, single point]"},
      {"smiles": "Cn1c(=O)c2c(nc(SCC(=O)NCC3CCCO3)n2Cc2ccc(F)cc2)n(C)c1=O", "note": "(configuration not stated)", "Potency": "inconclusive: 18.3 µM [inhibitor, partial curve]"}
    ]}
  ]
}
